In patent US20080281408A1:
No constants are given. Whether binding was seen depends on the method and setting. Some entries that bind do so weakly or less than the wild type.

Amino acid sequences for entries named in this document (tags omitted). A change or cut given only in a name is not applied to a line headed by its entry. Residues count along the entry.
UniProt P02453: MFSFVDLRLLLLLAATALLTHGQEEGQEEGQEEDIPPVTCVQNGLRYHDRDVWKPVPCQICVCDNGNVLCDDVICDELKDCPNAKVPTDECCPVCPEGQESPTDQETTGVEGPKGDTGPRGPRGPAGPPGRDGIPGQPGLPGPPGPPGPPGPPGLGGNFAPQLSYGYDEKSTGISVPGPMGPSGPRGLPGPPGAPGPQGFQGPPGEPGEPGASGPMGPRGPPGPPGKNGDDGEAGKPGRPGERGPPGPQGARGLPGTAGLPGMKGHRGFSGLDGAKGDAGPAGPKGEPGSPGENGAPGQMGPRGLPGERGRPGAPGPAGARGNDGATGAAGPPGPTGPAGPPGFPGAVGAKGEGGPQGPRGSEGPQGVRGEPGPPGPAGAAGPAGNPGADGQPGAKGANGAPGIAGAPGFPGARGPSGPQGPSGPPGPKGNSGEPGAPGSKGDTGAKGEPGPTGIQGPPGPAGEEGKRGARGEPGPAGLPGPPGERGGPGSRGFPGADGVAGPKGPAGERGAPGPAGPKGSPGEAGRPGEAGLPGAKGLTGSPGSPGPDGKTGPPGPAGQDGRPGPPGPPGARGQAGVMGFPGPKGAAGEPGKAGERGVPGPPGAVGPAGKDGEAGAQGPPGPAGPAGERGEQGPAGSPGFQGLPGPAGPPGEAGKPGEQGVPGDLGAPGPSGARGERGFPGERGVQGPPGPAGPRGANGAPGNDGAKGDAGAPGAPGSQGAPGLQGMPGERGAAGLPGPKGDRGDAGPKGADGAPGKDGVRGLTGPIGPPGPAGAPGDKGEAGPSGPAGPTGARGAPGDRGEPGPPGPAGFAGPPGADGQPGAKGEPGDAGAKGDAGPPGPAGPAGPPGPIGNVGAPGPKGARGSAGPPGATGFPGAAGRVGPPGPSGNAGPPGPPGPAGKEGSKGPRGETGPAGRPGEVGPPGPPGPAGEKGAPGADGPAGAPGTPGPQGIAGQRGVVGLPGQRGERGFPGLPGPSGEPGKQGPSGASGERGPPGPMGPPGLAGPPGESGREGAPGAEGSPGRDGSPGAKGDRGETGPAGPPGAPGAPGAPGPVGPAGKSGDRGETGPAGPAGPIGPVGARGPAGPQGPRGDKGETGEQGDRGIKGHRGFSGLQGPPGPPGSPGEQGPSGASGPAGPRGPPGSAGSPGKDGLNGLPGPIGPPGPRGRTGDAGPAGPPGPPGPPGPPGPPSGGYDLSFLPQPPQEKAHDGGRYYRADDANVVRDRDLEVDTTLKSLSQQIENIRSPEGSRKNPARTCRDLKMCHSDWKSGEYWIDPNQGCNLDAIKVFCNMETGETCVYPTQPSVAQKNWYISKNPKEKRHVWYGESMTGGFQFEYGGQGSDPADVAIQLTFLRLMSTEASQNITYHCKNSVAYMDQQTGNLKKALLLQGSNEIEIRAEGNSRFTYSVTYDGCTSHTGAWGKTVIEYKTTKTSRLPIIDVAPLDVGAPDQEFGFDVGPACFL
UniProt P02465: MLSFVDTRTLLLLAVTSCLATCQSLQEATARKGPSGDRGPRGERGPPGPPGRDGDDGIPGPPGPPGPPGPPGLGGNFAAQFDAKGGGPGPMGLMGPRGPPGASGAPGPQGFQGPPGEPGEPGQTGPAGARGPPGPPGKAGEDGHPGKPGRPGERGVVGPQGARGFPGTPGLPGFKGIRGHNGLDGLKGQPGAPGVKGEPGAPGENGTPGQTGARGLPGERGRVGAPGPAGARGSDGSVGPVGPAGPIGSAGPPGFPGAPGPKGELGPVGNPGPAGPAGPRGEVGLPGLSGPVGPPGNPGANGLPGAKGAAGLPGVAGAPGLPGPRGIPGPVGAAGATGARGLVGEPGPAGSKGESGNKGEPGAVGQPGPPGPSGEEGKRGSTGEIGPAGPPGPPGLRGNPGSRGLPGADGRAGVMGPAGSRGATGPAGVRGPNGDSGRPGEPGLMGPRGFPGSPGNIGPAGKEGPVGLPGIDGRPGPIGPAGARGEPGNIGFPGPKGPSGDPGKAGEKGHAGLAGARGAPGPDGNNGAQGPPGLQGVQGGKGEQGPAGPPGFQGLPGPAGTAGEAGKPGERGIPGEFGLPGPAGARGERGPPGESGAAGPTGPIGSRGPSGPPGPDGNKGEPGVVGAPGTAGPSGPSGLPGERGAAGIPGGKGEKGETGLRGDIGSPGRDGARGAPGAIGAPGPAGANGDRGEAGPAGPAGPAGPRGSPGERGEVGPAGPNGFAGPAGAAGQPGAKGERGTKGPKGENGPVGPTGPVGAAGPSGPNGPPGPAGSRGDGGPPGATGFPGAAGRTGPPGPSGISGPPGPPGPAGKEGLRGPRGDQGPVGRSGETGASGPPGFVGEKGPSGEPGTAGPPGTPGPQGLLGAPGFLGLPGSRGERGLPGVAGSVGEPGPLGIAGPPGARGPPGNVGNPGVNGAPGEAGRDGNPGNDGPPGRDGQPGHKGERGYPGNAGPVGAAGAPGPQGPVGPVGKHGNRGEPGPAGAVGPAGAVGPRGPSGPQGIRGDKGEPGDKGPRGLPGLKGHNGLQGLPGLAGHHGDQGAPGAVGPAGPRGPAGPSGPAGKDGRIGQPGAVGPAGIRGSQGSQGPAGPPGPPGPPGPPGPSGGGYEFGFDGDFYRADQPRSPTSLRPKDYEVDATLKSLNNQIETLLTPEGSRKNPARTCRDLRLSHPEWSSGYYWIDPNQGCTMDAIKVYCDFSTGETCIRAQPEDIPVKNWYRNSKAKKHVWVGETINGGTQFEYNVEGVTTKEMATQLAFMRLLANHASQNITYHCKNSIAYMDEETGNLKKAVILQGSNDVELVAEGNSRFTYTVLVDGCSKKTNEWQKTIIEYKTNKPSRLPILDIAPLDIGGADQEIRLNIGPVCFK
UniProt P14210, residues 32-728: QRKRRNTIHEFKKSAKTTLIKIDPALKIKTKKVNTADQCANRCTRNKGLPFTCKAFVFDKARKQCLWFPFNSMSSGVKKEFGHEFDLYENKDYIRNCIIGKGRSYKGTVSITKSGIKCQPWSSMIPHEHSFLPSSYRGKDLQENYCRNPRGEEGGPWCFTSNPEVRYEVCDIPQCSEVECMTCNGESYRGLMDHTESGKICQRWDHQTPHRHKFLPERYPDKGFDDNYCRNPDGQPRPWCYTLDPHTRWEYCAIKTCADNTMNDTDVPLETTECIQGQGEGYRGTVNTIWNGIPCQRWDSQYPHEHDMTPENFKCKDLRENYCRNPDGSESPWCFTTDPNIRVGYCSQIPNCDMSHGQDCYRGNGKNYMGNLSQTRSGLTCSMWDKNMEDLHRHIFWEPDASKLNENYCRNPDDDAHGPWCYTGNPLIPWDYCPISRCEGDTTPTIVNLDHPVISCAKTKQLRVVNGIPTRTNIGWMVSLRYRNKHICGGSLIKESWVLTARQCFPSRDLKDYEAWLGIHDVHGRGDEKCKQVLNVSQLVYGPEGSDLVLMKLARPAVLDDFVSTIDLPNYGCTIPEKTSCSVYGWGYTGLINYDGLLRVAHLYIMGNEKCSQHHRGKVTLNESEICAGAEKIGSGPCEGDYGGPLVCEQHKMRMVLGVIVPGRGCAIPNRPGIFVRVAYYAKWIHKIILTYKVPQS

Columns and labels:
[1] = target: T1, type 1 collagen (bovine) (CELLGEN, Koken Co., Ltd.) (bovine) (UniProt P02453+P02465); test: ELISA on collagen-coated plate, detection with anti-HGF antibody
[2] = target: T1, type 1 collagen (bovine) (CELLGEN, Koken Co., Ltd.) (bovine); test: ELISA on collagen-coated plate, detection with anti-human HGF antibody

HGF (TOYOBO HGF-101, CHO cell expressing recombinant protein) (from UniProt P14210 32-728) (ligand)
binding [1]: binds | binding [2]: binds
